{"sequences": {"note": "Sequences of proteins named here, by UniProt entry; tags and fusion partners are left off.", "UniProt Q2PQA9": "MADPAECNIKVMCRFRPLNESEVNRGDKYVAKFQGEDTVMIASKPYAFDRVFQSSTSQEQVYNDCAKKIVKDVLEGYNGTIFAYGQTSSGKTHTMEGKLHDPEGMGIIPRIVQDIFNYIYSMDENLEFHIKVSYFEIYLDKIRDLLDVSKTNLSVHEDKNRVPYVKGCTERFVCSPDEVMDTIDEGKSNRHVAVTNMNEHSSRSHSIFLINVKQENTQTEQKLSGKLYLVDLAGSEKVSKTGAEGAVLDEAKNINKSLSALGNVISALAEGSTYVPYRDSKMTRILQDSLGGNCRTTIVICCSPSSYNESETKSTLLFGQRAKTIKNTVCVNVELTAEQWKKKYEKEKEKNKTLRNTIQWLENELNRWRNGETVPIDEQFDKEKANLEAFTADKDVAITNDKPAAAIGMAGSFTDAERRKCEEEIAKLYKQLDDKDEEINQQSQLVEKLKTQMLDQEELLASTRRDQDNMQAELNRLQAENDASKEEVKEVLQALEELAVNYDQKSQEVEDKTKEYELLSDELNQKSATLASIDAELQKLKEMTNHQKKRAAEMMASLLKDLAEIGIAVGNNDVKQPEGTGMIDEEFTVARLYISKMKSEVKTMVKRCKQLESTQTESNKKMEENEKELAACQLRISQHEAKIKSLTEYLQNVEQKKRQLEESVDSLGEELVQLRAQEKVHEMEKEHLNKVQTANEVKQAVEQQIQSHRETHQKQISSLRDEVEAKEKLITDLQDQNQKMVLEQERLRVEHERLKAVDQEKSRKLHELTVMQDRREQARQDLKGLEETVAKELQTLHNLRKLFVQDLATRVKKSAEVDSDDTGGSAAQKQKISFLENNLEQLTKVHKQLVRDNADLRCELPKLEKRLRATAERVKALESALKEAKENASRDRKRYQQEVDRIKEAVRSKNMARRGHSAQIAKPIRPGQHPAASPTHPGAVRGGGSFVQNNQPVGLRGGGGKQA", "UniProt P11142": "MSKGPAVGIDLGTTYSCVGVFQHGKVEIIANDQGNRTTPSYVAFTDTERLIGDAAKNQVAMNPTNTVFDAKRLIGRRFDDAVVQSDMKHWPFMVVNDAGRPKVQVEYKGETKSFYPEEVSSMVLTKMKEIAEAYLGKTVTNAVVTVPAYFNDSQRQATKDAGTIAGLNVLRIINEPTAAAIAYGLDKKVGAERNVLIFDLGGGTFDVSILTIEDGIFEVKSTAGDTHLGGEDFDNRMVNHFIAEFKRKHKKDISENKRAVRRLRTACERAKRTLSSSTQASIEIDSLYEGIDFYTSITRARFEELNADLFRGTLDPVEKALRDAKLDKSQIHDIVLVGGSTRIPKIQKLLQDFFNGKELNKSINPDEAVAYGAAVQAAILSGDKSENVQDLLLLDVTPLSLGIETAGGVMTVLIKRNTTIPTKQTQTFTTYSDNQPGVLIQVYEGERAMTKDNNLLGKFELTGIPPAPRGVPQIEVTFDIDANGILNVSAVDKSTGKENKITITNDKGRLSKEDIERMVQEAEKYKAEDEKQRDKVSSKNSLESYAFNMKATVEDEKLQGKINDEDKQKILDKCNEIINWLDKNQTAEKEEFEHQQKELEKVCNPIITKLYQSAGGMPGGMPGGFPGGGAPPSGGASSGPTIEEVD", "UniProt Q92598": "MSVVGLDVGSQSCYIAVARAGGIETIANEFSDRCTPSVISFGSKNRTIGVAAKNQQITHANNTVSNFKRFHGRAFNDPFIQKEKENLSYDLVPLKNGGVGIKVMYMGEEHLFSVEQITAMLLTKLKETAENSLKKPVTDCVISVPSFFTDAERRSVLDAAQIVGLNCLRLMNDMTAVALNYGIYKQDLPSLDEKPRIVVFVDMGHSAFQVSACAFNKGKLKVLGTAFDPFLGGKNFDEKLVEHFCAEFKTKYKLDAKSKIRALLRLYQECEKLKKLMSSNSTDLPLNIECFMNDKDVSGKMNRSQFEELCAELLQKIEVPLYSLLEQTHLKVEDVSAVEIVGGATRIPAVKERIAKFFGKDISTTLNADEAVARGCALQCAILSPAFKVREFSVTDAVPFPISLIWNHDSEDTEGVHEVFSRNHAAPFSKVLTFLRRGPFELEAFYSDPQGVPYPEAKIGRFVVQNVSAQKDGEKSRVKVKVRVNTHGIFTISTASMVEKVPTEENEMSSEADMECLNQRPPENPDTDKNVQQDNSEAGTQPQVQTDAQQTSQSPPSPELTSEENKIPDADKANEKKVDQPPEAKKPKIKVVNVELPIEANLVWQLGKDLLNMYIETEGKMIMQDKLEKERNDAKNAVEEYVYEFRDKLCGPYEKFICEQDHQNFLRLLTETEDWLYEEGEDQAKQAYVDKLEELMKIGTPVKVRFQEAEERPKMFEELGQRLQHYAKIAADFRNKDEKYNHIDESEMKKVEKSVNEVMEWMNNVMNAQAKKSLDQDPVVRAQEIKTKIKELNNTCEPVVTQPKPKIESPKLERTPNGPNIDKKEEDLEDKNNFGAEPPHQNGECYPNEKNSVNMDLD"}, "source": "paper PMC5458101", "key": {"[1]": {"biological_target": "T1, FLAG-tagged B14 wild type (UniProt Q8TBM8)", "T1 sequence": "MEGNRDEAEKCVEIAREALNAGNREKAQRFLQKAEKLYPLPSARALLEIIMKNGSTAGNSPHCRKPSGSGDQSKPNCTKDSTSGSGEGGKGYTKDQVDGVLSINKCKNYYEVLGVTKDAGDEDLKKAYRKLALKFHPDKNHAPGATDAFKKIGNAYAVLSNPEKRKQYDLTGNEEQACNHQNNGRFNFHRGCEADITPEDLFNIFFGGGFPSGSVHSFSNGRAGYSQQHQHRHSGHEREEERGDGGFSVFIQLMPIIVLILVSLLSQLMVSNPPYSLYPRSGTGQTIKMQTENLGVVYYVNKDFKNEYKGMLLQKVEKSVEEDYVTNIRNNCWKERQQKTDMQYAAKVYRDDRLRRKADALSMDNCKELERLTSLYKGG", "assay": "co-IP"}, "[2]": {"biological_target": "T2, FLAG-tagged B14 H136Q (J-domain mutant) (UniProt Q8TBM8)", "T2 sequence": "T1 sequence with H136Q", "assay": "co-IP; 293T cells expressing ^FLAGB14 WT or ^FLAGB14 H136Q, transiently transfected with ^mChKIF5 WT; DSP, lysis in 1% Triton X-100 TSEP buffer; anti-FLAG agarose beads; immunoblot"}, "[3]": {"biological_target": "T1, FLAG-tagged B14 wild type", "assay": "co-IP; 293T cells expressing ^FLAGB14 WT or ^FLAGB14 H136Q, transiently transfected with ^mChKIF5 WT; DSP, lysis in 1% Triton X-100 TSEP buffer; anti-FLAG agarose beads; immunoblot"}, "[4]": {"biological_target": "T3, 3x-FLAG tagged B14 (DNAJ homologue subfamily B member 14) (UniProt Q8TBM8)", "T3 sequence": "T1 sequence", "assay": "co-IP; Flp-In 293T-REx cells stably expressing B14^3xFLAG, transiently transfected with ^mChKIF5 WT; cells treated with the cross-linker DSP (2 mM), lysed in 1% Triton X-100 TSEP buffer; anti-FLAG agarose beads, 2 h, 4 °C; immunoblot; HEK 293T cells without B14^3xFLAG as control"}}, "note": "Numbering of substitutions follows the chain as printed. These are yes or no findings as the source states them, for the method shown. In cells and extracts the contact can be indirect. Some results given as binding are weak or reduced against the parent protein; the word gives no strength. Tags and fused reporters may be left off the sequences shown."}
{"substance": "Full-length WT KIF5B tagged with mCherry at its N terminus (from UniProt Q2PQA9 1-963)", "values": [{"measurement": "binding", "setting": "[1]", "result": "binds"}, {"measurement": "binding", "setting": "[2]", "result": "binds"}, {"measurement": "binding", "setting": "[3]", "result": "binds"}, {"measurement": "binding", "setting": "[4]", "result": "binds"}]}
{"substance": "heat shock cognate protein 70 (endogenous, 293T) (from UniProt P11142 1-646)", "values": [{"measurement": "binding", "setting": "[2]", "result": "binds weakly"}, {"measurement": "binding", "setting": "[3]", "result": "binds"}]}
{"substance": "heat shock protein 105 (endogenous, 293T) (from UniProt Q92598 1-858)", "values": [{"measurement": "binding", "setting": "[2]", "result": "binds weakly"}, {"measurement": "binding", "setting": "[3]", "result": "binds"}]}
